{"source": "PubChem BioAssay AID652272 – Drosophila RNAi Screening Center, 2013", "screen": "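Genome-wide knock-down search for components of Hedgehog signalling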 (primary screen)", "cells": "Drosophila clone 8 (Cl8) cells", "reagents": "long dsRNA against Drosophila genes", "measurement": "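Firefly light from a Hedgehog-responsive ptc promoter reporter and Renilla reference light, both read on a plate reader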", "reading the numbers": "firefly Hh reporter signal: higher = more ptc reporter light; Renilla reference signal: higher = more Renilla control light", "hit rule": "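Called a hit if the two-replicate mean z-score lies below -2 or above +3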", "calls": "active = hit: reporter lowered or raised; inactive = not a hit", "note": "The screen tested about 21,000 reagents; shown is an unselected part of those that have a named target and a result. In the full data, 503 (2.4%) are marked active. 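Raw plate light values, not normalised; calls rest on replicate z-scores that were not deposited; hits include reporter decreases as well as increases.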 Entries without a mark were called inactive. Not stated in the record: the amount of reagent, the time to read-out."}
{"gene": "RabX5", "amplicon": "DRSC08608", "firefly Hh reporter signal, replicate 1": 76581, "firefly Hh reporter signal, replicate 2": 38373, "Renilla reference signal, replicate 1": 2432, "Renilla reference signal, replicate 2": 3001}
{"gene": "CG10912", "amplicon": "DRSC06009", "firefly Hh reporter signal, replicate 1": 1.30e5, "firefly Hh reporter signal, replicate 2": 1.03e5, "Renilla reference signal, replicate 1": 6155, "Renilla reference signal, replicate 2": 4578}
{"gene": "DCAF12", "amplicon": "DRSC15475", "firefly Hh reporter signal, replicate 1": 95253, "firefly Hh reporter signal, replicate 2": 80396, "Renilla reference signal, replicate 1": 3536, "Renilla reference signal, replicate 2": 2961}
{"gene": "CG31810", "amplicon": "DRSC01560", "firefly Hh reporter signal, replicate 1": 1.02e5, "firefly Hh reporter signal, replicate 2": 1.96e5, "Renilla reference signal, replicate 1": 2940, "Renilla reference signal, replicate 2": 9130}
{"gene": "CG4502", "amplicon": "DRSC02755", "firefly Hh reporter signal, replicate 1": 97873, "firefly Hh reporter signal, replicate 2": 71430, "Renilla reference signal, replicate 1": 4385, "Renilla reference signal, replicate 2": 3292}
{"gene": "Mis12", "amplicon": "DRSC10299", "firefly Hh reporter signal, replicate 1": 30298, "firefly Hh reporter signal, replicate 2": 42002, "Renilla reference signal, replicate 1": 2609, "Renilla reference signal, replicate 2": 2976}
{"gene": "CG32523", "amplicon": "DRSC20510", "firefly Hh reporter signal, replicate 1": 77665, "firefly Hh reporter signal, replicate 2": 2.43e5, "Renilla reference signal, replicate 1": 2076, "Renilla reference signal, replicate 2": 10147}
{"gene": "CG14341", "amplicon": "DRSC00371", "firefly Hh reporter signal, replicate 1": 1.82e5, "firefly Hh reporter signal, replicate 2": 1.14e5, "Renilla reference signal, replicate 1": 4072, "Renilla reference signal, replicate 2": 3141}
{"gene": "wuho", "amplicon": "DRSC18101", "firefly Hh reporter signal, replicate 1": 53560, "firefly Hh reporter signal, replicate 2": 2.98e5, "Renilla reference signal, replicate 1": 1635, "Renilla reference signal, replicate 2": 11737}
{"gene": "CG6435", "amplicon": "DRSC06987", "firefly Hh reporter signal, replicate 1": 86432, "firefly Hh reporter signal, replicate 2": 68411, "Renilla reference signal, replicate 1": 2224, "Renilla reference signal, replicate 2": 5296}
{"gene": "CG42232", "amplicon": "DRSC15018", "firefly Hh reporter signal, replicate 1": 54944, "firefly Hh reporter signal, replicate 2": 39464, "Renilla reference signal, replicate 1": 2976, "Renilla reference signal, replicate 2": 1943}
{"gene": "CG42232", "amplicon": "DRSC15019", "firefly Hh reporter signal, replicate 1": 1.07e5, "firefly Hh reporter signal, replicate 2": 83706, "Renilla reference signal, replicate 1": 5229, "Renilla reference signal, replicate 2": 3778}
{"gene": "BBS9", "amplicon": "DRSC04257", "firefly Hh reporter signal, replicate 1": 96453, "firefly Hh reporter signal, replicate 2": 64690, "Renilla reference signal, replicate 1": 2672, "Renilla reference signal, replicate 2": 6220}
{"gene": "Pur-alpha", "amplicon": "DRSC17166", "firefly Hh reporter signal, replicate 1": 1.43e5, "firefly Hh reporter signal, replicate 2": 1.19e5, "Renilla reference signal, replicate 1": 2733, "Renilla reference signal, replicate 2": 3589}
{"gene": "CG14223", "amplicon": "DRSC19580", "firefly Hh reporter signal, replicate 1": 80801, "firefly Hh reporter signal, replicate 2": 1.90e5, "Renilla reference signal, replicate 1": 2523, "Renilla reference signal, replicate 2": 7435}
{"gene": "Acsx1R", "amplicon": "DRSC14339", "firefly Hh reporter signal, replicate 1": 7.00e5, "firefly Hh reporter signal, replicate 2": 1.19e5, "Renilla reference signal, replicate 1": 35355, "Renilla reference signal, replicate 2": 3693}
{"gene": "CG13862", "amplicon": "DRSC14712", "firefly Hh reporter signal, replicate 1": 8.75e5, "firefly Hh reporter signal, replicate 2": 2.03e5, "Renilla reference signal, replicate 1": 43440, "Renilla reference signal, replicate 2": 5062}
{"gene": "Osi17", "amplicon": "DRSC12284", "firefly Hh reporter signal, replicate 1": 66458, "firefly Hh reporter signal, replicate 2": 1.11e5, "Renilla reference signal, replicate 1": 2396, "Renilla reference signal, replicate 2": 3312}
{"gene": "CG31323", "amplicon": "DRSC14901", "firefly Hh reporter signal, replicate 1": 6.42e5, "firefly Hh reporter signal, replicate 2": 1.66e5, "Renilla reference signal, replicate 1": 30933, "Renilla reference signal, replicate 2": 5330}
{"gene": "CG10445", "amplicon": "DRSC14247", "firefly Hh reporter signal, replicate 1": 68077, "firefly Hh reporter signal, replicate 2": 87968, "Renilla reference signal, replicate 1": 2656, "Renilla reference signal, replicate 2": 4323}
{"gene": "GC1", "amplicon": "DRSC15322", "firefly Hh reporter signal, replicate 1": 1.03e5, "firefly Hh reporter signal, replicate 2": 1.04e5, "Renilla reference signal, replicate 1": 4417, "Renilla reference signal, replicate 2": 2077}

Looked up above.
RabX5 [DRSC08608], Renilla reference signal, replicate 1 = 2432
For “Renilla reference signal, replicate 1”, wuho [DRSC18101] reads 1635
